Reference: PMC6288840
No constants are given. Whether binding was seen depends on the method and setting. In cells and extracts the contact can be indirect. Some results given as binding are weak or reduced against the parent protein; the word gives no strength. Tags and fused reporters may be left off the sequences shown.

Amino acid sequences for entries named in this document (tags omitted).
UniProt P22147: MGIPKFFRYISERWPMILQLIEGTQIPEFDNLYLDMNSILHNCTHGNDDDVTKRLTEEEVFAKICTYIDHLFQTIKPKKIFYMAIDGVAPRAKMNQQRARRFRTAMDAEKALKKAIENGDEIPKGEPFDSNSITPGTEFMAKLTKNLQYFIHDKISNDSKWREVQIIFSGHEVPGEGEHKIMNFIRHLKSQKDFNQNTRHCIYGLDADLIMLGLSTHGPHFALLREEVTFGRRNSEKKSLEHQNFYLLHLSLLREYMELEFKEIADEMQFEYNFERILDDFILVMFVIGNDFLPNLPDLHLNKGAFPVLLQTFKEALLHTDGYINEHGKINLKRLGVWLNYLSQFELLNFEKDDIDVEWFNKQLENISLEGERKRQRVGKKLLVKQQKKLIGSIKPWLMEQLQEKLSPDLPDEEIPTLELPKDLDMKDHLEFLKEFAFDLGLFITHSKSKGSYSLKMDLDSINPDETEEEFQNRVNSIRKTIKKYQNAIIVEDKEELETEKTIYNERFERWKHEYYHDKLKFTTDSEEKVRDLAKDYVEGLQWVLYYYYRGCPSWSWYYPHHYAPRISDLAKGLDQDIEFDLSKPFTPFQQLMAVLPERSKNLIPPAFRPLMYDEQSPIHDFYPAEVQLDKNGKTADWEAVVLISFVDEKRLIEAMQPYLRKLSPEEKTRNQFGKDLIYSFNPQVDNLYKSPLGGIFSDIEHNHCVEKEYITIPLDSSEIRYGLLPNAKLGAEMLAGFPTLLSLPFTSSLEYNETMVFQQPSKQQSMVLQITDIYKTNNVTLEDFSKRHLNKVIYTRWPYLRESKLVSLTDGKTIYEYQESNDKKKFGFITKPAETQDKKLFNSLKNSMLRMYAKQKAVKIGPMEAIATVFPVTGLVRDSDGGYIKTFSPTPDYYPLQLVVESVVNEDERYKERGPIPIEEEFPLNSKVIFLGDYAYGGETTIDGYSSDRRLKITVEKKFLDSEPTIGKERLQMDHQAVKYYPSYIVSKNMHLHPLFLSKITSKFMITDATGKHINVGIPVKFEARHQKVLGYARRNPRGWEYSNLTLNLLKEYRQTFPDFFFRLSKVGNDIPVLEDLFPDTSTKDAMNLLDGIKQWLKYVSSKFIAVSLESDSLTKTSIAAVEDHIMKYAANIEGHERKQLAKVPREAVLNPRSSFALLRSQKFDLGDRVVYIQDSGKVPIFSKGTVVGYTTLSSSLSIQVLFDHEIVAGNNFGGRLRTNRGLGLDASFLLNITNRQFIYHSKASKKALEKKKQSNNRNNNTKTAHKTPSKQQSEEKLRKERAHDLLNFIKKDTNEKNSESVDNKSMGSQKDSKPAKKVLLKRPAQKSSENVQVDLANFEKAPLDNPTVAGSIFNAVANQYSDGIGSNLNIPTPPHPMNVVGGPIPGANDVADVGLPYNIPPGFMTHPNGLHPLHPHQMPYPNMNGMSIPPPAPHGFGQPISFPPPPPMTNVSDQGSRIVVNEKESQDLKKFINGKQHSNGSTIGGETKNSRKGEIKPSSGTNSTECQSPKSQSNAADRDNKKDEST

Biological target: Xrn1-Flag (S. cerevisiae) (UniProt P22147)
Assay: co-IP; Xrn1-Flag immunoprecipitated with Flag antibodies from yeast cells that also carry a GFP-tagged partner; wild type or rad53 deletion cells, untreated or treated with 0.05% MMS for 3 hr

- binding: binds
B1: Ngr1-GFP (protein, UniProt P32831 1-672)
chain: MMSNVANASQRQENPYIIPLPPSSTVETSTEPPRTLWMGDLDPSFDEATIEEIWSKLDKKVIVKLIRAKKNLLIPCSSTSSSNNNTSEENAENQQSASNSTDQLDNSQMININGISFIDPSTTQLHHAGYCFVEFETQKDAKFALSLNATPLPNFYSPTTNSQTNPTFKRTFRLNWASGATLQSSIPSTPEFSLFVGDLSPTATEADLLSLFQTRFKSVKTVRVMTDPLTGSSRCFGFVRFGDEDERRRALIEMSGKWFQGRALRVAYATPRNNMMLQLQEQQQQQQQLQQQHQQLDQEDNNGPLLIKTANNLIQNNSNMLPLNALHNAPPMHLNEGGISNMRVNDSLPSNTYNTDPTNTTVFVGGLVPKTTEFQLRSLFKPFGPILNVRIPNGKNCGFVKFEKRIDAEASIQGLQGFIVGGSPIRLSWGRPSSSNAKTNSTIMGASQYMSSNGLRAPSAASSVDNSKQILEQYAEDKRRLFLHQQQQQQQQQQQDGNFSMEQMAHNNYYNYNNYDYHRNKNGSHSDLVNLQRSNVPYMQEDGALYPHQYSSPSYSLHPTGNQFSNATNNLPQFGNAMSISMQLPNGNSNKTASSMNTNPNTNMIMNSNMNMNMNVNPVPYGMGNGANMYDVSRMMTPPLNIAPNSNNSKSSIMNKHPNRNNVPPIHPSLLH
